Each structure is given as a SMILES string. “And” between values parts separate entries of the source, which are not always exact repeats. Identical values can stand only once. The list shows a part of the results. Single values are uncertain here, since repeats match poorly.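 HEK293T cells were given each compound shortly before transfection with a reporter in which red mCherry is followed by the SARS-CoV-2 frameshift element and then GFP in the −1 frame, so GFP appears only after frameshifting.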

The assay deals with SARS-CoV-2 -1 PRF reporter mCherry-FSE-GFP(-1). Description: percent effect, decrease of GFP/mCherry ratio (-1 PRF reporter) relative to controls; higher = stronger frameshift inhibition. As to conditions: 10 µM; 24 h; HEK293T.
`CNCCCC1(c2ccccc2)OC(C)(C)c2ccccc21` (stereo not drawn) [talopram]: the percent effect is -3.45%. As for `NC(=O)N1c2ccccc2CC(=O)c2ccccc21` [oxcarbazepine], the percent effect is -1.22% and -5.99%. The value for `C=C1c2cccc(O)c2C(O)=C2C(=O)[C@]3(O)C(O)=C(C(N)=O)C(=O)[C@@H](N(C)C)[C@@H]3[C@@H](O)[C@H]12` [Methacycline] was -10.6%; that for `Cc1cccc(C)c1NC(=O)C1CCCCN1C` (stereo not drawn) was -2.91%; that for `COc1ccc(C(=O)CC(=O)c2ccc(C(C)(C)C)cc2)cc1` [avobenzone] was -0.875%. Take `CCCCCNC(=N)N/N=C/c1c[nH]c2ccc(OC)cc12`: the percent effect was -0.388%. `FC(F)(Cl)C(F)(F)Cl` [cryofluorane]: the percent effect was -4.48%. `OC[C@H]1O[C@@H](O[C@@H]2[C@@H](CO)OC(O)(CO)[C@H]2O)[C@H](O)[C@@H](O)[C@H]1O` (mixture of isomers) [lactulose]: the percent effect was -0.623%.

The record behind these values is the supplement of paper PMC8256030.
